Measured values taken from PubChem BioAssay AID504467 (National Center for Advancing Translational Sciences (NCATS), 2011).
In all, about 330,000 compounds went through this assay and about 7,700 (2.3%) were called active. Inconclusive results, whose numbers are uncertain, are shown with a selection of clear calls. Calls follow the shape of the dose curve; as a rule, active = well fitted inhibition curve with a large enough effect; inconclusive = small, poorly fitted or top-dose-only effect, or effect the other way; inactive = flat fitted curve, though single readings scatter. Where the call is inconclusive, the potency comes from a doubtful curve fit.

assay: qHTS screen for small molecules that inhibit ELG1-dependent DNA repair in human embryonic kidney (HEK293T) cells expressing luciferase-tagged ELG1; details: HEK293T ELG1-luciferase reporter, luminescence, 16 h, DNA damage induced by 5-fluorouridine; activity change, negative = inhibition: at 46.1 µM (top of the series); also: nearly all actives have a fitted effect of over 55% in size
Outline: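 In this reporter screen, reduction of luminescence relative to DMSO vehicle indicated activity. Compounds and 5-fluorouridine were added together to 2,000 cells per well, incubated for 16 hr at 37 °C, then developed with ONE-Glo.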
% is scaled to controls: 0 for no effect and ±100 for the full control effect; potency is read from the fitted curve at half-maximal effect.

Structure (SMILES) | Potency | activity change, negative = inhibition
Cc1ccc(-c2csc(NC(=O)C3=COCCO3)n2)cc1 | inconclusive: 13 µM [activator, partial curve] | –
CC(C)c1ccc(-c2cc(C(=O)N3CCOCC3)c3cc(Br)ccc3n2)cc1 | inconclusive: 23.1 µM [inhibitor, single point] | –
CN(C)C=Nc1ccc2nc3c(cc2c1)[nH]c1ccccc13 | inconclusive: 2.06 µM [activator, full curve] | –
CCc1ccc2oc(-c3ccc(OC)cc3)cc(=Nc3cccc(C(=O)O)c3)c2c1 | inconclusive: 2.91 µM [activator, full curve] | –
CCOC(=O)C1=C(c2ccccc2)NC(SCC(=O)NC2CCCCC2)=C(C#N)C1c1ccco1 (stereo unspecified) | active: 18.4 µM | –
Cc1cc(NCCCn2ccnc2)n2nc(-c3ccc(F)cc3)cc2n1 | inconclusive: 18.4 µM [activator, single point] | –
Cc1ccc(Cn2cnc3c(cnn3C(C)(C)C)c2=O)cc1 | active: 16.4 µM | –
O=c1[nH]cnc2c1oc1ccccc12 | inconclusive: 23.1 µM [activator, single point] | –
Cc1cc(/C=C2\SC(=O)NC2=O)c(C)n1-c1ccc(N2CCOCC2)cc1 | – | inactive: -20.7%
O=[N+]([O-])c1ccc(C2CC(c3ccccc3)=Nc3ccccc3S2)cc1 (stereo unspecified) | – | inactive: 17.8%
NS(=O)(=O)c1ccc(CCNC(=O)C2CCN(S(=O)(=O)c3cnc[nH]3)CC2)cc1 | inconclusive: 5.8 µM [activator, partial curve, poor fit] | –
CC(C)c1nnc(NC(=O)CCC(=O)NC2CC2)s1 | inconclusive: 29.1 µM [activator, partial curve, poor fit] | –
Cc1ncc(CN2CCC(C(=O)Nc3ccc(-n4cccn4)cc3)CC2)s1 | – | inactive: 3.98%
COc1ccc(C(=O)NCc2c(C)nn(Cc3ccccc3)c2C)cc1S(=O)(=O)N1CCOCC1 | inconclusive: 9.2 µM [inhibitor, partial curve, poor fit] | –
CCOC(=O)C1=CN(Cc2ccco2)S(=O)(=O)NC1CC (stereo unspecified) | – | inactive: -3.47%
Cc1ccc(O)c(NC(=O)c2cc(-c3ccc(F)cc3)on2)c1 | inconclusive: 5.17 µM [activator, partial curve] | –
COc1ccc2c(=O)c(-c3ccccc3)coc2c1 | inconclusive: 4.61 µM [activator, full curve] | –
Cc1ccc(NC(=O)C2CCN(S(=O)(=O)c3ccc4c(c3)NC(=O)C(C)S4)CC2)c(C)c1 (stereo unspecified) | inconclusive: 32.6 µM [inhibitor, single point] | –
Cc1ccc(-n2nc3ccc(N)cc3n2)cc1Cl | inconclusive: 2.31 µM [activator, full curve] | –
COc1ccc(NC(=O)c2nc[nH]c2C(=O)N(C)Cc2ccccc2)cc1 | – | inactive: -19%
CC(NCC1(N2CCOCC2)CCCCC1)C(=O)Nc1ccc(Cl)cc1Cl (stereo unspecified) | inconclusive: 29.1 µM [inhibitor, single point] | –
Brc1ccccc1OCCCCn1cnc2ccccc21 | inconclusive: 32.6 µM [activator, partial curve, poor fit] | –
CCCNC(=O)c1ccc(-c2nc3ccccc3s2)s1 | inconclusive: 0.517 µM [activator, full curve] | –
CCOC(=O)C1(CCc2ccccc2)CCN(C(=O)CCn2cncn2)CC1 | inconclusive: 16.4 µM [activator, partial curve] | –

Structure (SMILES) | Potency | activity change, negative = inhibition
CCN(CC(=O)Nc1ccc2c(c1)CCC2)Cc1nc2ccccc2c(=O)[nH]1 | inconclusive: 23.1 µM [inhibitor, single point] | –
Nc1nnc(SCc2ccc(F)cc2Cl)s1 | inconclusive: 20.6 µM [activator, single point] | –
Cc1cccc(C)c1NC(=O)CN(C)C(=O)C1CC1C (stereo unspecified) | – | inactive: 17.9%
O=C(COC(=O)CCC1CCCC1)Nc1ccc(F)cc1 | – | inactive: 8.71%
COc1nc(C)ccc1-c1noc(-c2ccco2)n1 | inconclusive: 2.06 µM [activator, full curve] | –
COc1ccc(C(=O)N/N=C2\CCS(=O)(=O)c3ccc(F)cc32)cc1OC | inconclusive: 13 µM [inhibitor, partial curve] | –
Cc1cc(C)n2cc(CSCc3ccco3)nc2n1 | inconclusive: 32.6 µM [activator, partial curve, poor fit] | –
COc1ccc(/C=N/N2CCOCC2)cc1Cn1cc([N+](=O)[O-])cn1 | inconclusive: 29.1 µM [activator, single point] | –
COc1cc(C(=O)NNC(=O)CCOc2ccccc2C)cc(OC)c1OC | inconclusive: 29.1 µM [inhibitor, partial curve, poor fit] | –
C=CCn1c(C)cc(C(=O)COC(=O)c2ccc(N)c([N+](=O)[O-])c2)c1C | inconclusive: 2.59 µM [activator, partial curve] | –
NC(=O)c1ccccc1NC(=O)CN1CCN(Cc2ccccc2)CC1 | – | inactive: -1.82%
COC(=O)c1ccc(NC(=O)CN2CCN(CC#N)CC2)cc1 | inconclusive: 16.4 µM [activator, single point] | –
CN(C)CCCNC(=O)c1cc2sc3ccccc3c2s1 | inconclusive: 18.3 µM [activator, single point] | –
O=S(=O)(/C=C/c1ccccc1)N1CCN(c2nc(-c3ccccc3)nc3ccccc23)CC1 | inconclusive: 16.4 µM [inhibitor, partial curve, poor fit] | –
CC(OC(=O)c1cccc(-n2cnnn2)c1)C(=O)NC1(C#N)CCCCC1 (stereo unspecified) | – | inactive: 7.87%
CCCOc1ccc(Cl)cc1/C=C1/C(=O)ON=C1C | inconclusive: 29.1 µM [activator, single point] | –
Cc1ccc(Nc2nc(/N=C/NO)n[nH]2)cc1C | – | inactive: 0%
Nc1ccc(N2CCN(c3ccc(Cl)c(Cl)c3)CC2)cc1 | inconclusive: 25.9 µM [inhibitor, single point] | –
O=C(O)C1CCCCC1C(=O)NCc1ccc(Cl)c(Cl)c1 (stereo unspecified) | inconclusive: 23.1 µM [activator, partial curve, poor fit] | –
Cc1ccc(S(=O)(=O)c2c(C)cc(C)[nH]c2=O)c(C)c1 | – | inactive: -3.2%
CCOC(OCC)c1cc2ccccc2cn1 | inconclusive: 16.4 µM [activator, single point] | –
Cc1cccc(C)c1OCc1cc(C(=O)NC2CCC2)no1 | inconclusive: 11.6 µM [activator, partial curve] | –
Cc1ccc(C(O)c2nc3ccccc3n2C(C)C)cc1 (stereo unspecified) | – | inactive: 2.12%
CCc1ccc(C(=O)NCc2ccc(Cl)cc2)cc1 | inconclusive: 20.6 µM [activator, single point] | –

Structure (SMILES) | Potency | activity change, negative = inhibition
Cc1csc(NC(=O)CSc2nnc(Cc3cccn3C)n2CCc2ccccc2)n1 | inconclusive: 18.4 µM [inhibitor, partial curve, poor fit] | –
CN1CCN(CC(=O)Nc2nnc(-c3cccs3)s2)CC1 | inconclusive: 18.4 µM [activator, single point] | –
COc1ccc(CNC(=O)c2ccc(CS(=O)c3ccccc3)o2)cc1 (stereo unspecified) | – | inactive: -0.846%
CC1(C)CC(=O)C2=C(C1)N(Cc1ccccc1)C(=O)C2(NC(=O)C(C)(C)C)C(F)(F)F (stereo unspecified) | – | inactive: 7.16%
COc1ccc(CNc2ncnc3sccc23)cc1OC | inconclusive: 2.59 µM [inhibitor, full curve] | –
CN(C)S(=O)(=O)N1CCC(Oc2ccc(C(=O)N3CCCCCCC3)cc2)CC1 | inconclusive: 29.1 µM [inhibitor, single point] | –
CN=C(N)NC(=O)Nc1c(C)cccc1C | – | inactive: 1.51%
COc1ccc2[nH]c(C)c(CCNC(=S)Nc3cc(C)cc(C)c3)c2c1 | – | inactive: -11.9%
COc1cccc(Oc2ccc(N/C=C/C(=O)C(C)(C)C)cc2)c1 | inconclusive: 20.6 µM [activator, single point] | –
COc1ccc(-c2cn(Cc3ccc(C(N)=O)cc3)c(-c3ccncc3)n2)cc1 | inconclusive: 7.94 µM [activator, partial curve] | –
Cc1cccc2cc(CN(Cc3ccco3)C(c3nnnn3CCc3ccccc3)C(C)C)c(=O)[nH]c12 (stereo unspecified) | active: 9.2 µM | –
Cc1ccc(C)c2c1cc(C)c1nnc(SCC(=O)Nc3nc4c(s3)CCCC4)n12 | inconclusive: 16.4 µM [inhibitor, partial curve, poor fit] | –
CCc1cccc(C)c1NC(=O)CN(C)Cc1cccc(F)c1 | – | inactive: 1.38%
CN=C(Nc1ccc(Br)cc1)SC1CC(=O)N(c2ccc(OC)cc2)C1=O (stereo unspecified) | inconclusive: 25.9 µM [inhibitor, partial curve, poor fit] | –
O=S(=O)(Nc1ccccc1O)c1ccc(Cl)nc1 | inconclusive: 32.6 µM [inhibitor, single point] | –
CCc1ccc(N(CC(=O)NC2CCCC2)S(=O)(=O)c2c(C)noc2C)cc1 | – | inactive: -0.545%
Cn1c(SCc2ccc(Br)cc2)nc2c(c1=O)SCC2 | inconclusive: 18.3 µM [inhibitor, partial curve] | –
COc1cccc(NC(=O)c2ccc3snnc3c2)c1 | inconclusive: 16.4 µM [activator, partial curve] | –
CC(=O)Nc1ccccc1C(=O)C(=O)Nc1ccc(C)c(F)c1 | inconclusive: 4.11 µM [activator, partial curve] | –
O=C(c1cc(=O)[nH]c2ccccc12)N1CCN(c2cccc(C(F)(F)F)c2)CC1 | inconclusive: 29.1 µM [inhibitor, single point] | –
COc1ccc(C)cc1NC(=O)c1cc2ccccc2o1 | inconclusive: 11.2 µM [activator, partial curve, poor fit] | –
Cc1ccc(C(=O)NCCNC(=O)c2cnccn2)cc1 | – | inactive: -0.272%
CN(c1ccc(C(=O)Nc2cccnc2)cc1)S(=O)(=O)c1ccccc1 | – | inactive: -25.3%

Quoted at random: 5 compounds from above
Structure (SMILES) | Potency | activity change, negative = inhibition
COc1cccc(Oc2ccc(N/C=C/C(=O)C(C)(C)C)cc2)c1 | inconclusive: 20.6 µM [activator, single point] | –
COc1cccc(NC(=O)c2ccc3snnc3c2)c1 | inconclusive: 16.4 µM [activator, partial curve] | –
CCc1cccc(C)c1NC(=O)CN(C)Cc1cccc(F)c1 | – | inactive: 1.38%
COc1ccc(C)cc1NC(=O)c1cc2ccccc2o1 | inconclusive: 11.2 µM [activator, partial curve, poor fit] | –
O=C(c1cc(=O)[nH]c2ccccc12)N1CCN(c2cccc(C(F)(F)F)c2)CC1 | inconclusive: 29.1 µM [inhibitor, single point] | –
